Measured values published in article PMC11176256.
Results are given in words; binding and its absence hold for the method and conditions named. In cells and extracts the contact can be indirect. Some binding calls cover weakened binding; strength is not graded here. Tags and fused reporters may be left off the sequences shown.

Legend:
Test in all cases: proximity ligation; THP-1 cells stably transduced with UNC93B1-V5 WT or variant (pTrip-SFFV-GFP-2A), cultured with PMA; Duolink PLA with rabbit anti-V5 and mouse anti-TLR8 antibodies; untreated or R848 0.5 µg/ml for 30 min; methanol-fixed
[1] = biological target: T1, V5-tagged UNC93B1 G325C (pTrip-SFFV-GFP-2A construct, in THP-1 cells) (human) (UniProt Q9H1C4)
T1 sequence: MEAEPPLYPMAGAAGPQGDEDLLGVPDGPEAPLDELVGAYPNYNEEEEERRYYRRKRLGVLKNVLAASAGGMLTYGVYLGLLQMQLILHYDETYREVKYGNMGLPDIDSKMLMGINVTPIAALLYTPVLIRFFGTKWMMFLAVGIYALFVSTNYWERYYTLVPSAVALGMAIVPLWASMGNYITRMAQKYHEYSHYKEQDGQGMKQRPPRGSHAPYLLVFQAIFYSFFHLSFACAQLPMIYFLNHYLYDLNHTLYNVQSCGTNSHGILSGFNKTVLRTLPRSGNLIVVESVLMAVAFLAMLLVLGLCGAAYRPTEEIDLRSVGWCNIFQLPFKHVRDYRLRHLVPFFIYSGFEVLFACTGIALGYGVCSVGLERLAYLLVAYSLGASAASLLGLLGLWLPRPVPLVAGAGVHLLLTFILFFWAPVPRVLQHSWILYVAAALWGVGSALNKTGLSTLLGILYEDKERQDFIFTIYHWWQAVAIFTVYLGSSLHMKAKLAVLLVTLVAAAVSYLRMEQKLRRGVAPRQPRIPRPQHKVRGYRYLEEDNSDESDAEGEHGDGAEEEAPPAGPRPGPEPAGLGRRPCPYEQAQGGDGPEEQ

[2] = biological target: T2, V5-tagged UNC93B1 L330R (pTrip-SFFV-GFP-2A construct, in THP-1 cells) (human) (UniProt Q9H1C4)
T2 sequence: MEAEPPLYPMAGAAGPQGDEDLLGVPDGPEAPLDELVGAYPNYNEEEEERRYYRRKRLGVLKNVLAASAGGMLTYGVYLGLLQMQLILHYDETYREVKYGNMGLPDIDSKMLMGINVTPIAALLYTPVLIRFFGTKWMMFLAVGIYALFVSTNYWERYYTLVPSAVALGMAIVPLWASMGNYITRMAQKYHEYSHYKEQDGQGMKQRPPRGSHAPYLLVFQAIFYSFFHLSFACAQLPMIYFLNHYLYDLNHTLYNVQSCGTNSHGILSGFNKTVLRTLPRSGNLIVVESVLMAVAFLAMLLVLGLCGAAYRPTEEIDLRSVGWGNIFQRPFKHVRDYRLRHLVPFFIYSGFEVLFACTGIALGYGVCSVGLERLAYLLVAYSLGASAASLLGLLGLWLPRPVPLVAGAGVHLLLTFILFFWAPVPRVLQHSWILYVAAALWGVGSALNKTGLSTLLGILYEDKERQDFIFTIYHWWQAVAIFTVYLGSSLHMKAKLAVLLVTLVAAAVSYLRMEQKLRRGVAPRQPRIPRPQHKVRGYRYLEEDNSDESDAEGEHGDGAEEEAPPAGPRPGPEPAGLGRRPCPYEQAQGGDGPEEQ

[3] = biological target: T3, V5-tagged UNC93B1 R466S (pTrip-SFFV-GFP-2A construct, in THP-1 cells) (human) (UniProt Q9H1C4)
T3 sequence: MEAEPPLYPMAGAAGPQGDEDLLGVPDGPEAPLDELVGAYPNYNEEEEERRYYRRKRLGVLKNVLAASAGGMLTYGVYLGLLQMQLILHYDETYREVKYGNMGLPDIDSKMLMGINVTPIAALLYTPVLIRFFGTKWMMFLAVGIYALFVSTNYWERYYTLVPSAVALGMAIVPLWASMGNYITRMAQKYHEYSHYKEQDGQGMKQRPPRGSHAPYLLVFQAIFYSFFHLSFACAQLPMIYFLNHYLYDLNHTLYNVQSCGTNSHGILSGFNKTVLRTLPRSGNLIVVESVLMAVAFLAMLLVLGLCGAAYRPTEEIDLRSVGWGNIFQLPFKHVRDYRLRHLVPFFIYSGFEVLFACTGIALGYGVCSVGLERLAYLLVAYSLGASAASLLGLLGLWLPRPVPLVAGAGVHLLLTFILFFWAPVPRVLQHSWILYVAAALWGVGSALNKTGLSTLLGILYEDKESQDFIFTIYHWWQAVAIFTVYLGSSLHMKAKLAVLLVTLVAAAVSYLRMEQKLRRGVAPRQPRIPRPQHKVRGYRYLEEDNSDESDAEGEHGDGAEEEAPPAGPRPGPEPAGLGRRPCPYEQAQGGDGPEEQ

[4] = biological target: T4, V5-tagged UNC93B1 R525P (pTrip-SFFV-GFP-2A construct, in THP-1 cells) (human) (UniProt Q9H1C4)
T4 sequence: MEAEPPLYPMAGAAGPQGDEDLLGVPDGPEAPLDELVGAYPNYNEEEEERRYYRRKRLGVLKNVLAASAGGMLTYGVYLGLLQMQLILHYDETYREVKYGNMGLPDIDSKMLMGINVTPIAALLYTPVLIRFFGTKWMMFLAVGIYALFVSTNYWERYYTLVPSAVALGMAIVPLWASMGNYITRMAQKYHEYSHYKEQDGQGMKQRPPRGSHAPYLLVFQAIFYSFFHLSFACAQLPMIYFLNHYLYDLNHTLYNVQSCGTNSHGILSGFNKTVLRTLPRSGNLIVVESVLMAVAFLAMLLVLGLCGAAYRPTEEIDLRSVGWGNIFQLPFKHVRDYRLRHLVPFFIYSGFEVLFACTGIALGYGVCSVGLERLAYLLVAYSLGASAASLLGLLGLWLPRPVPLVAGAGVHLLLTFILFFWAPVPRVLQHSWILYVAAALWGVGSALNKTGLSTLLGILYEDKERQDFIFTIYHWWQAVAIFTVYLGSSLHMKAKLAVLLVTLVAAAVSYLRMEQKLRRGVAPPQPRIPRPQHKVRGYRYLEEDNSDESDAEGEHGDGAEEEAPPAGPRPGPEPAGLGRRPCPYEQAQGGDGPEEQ

[5] = biological target: T5, V5-tagged human WT UNC93B1 (pTrip-SFFV-GFP-2A construct, in THP-1 cells) (human) (UniProt Q9H1C4)
T5 sequence: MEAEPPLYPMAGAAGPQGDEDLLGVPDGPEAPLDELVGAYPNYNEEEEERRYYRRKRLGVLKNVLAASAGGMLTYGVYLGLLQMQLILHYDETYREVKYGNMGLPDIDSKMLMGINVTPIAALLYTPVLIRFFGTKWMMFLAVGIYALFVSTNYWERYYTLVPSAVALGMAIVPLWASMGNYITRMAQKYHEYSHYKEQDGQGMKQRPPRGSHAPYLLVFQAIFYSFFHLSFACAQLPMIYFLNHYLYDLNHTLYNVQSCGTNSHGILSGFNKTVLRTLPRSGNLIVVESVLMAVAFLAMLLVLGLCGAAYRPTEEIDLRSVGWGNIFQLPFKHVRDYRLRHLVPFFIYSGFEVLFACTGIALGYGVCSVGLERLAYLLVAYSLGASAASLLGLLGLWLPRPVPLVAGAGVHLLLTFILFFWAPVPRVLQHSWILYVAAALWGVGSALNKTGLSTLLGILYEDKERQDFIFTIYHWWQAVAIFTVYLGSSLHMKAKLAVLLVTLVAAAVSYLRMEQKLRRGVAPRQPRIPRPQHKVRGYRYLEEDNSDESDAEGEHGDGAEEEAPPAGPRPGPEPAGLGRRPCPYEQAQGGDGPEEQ

Measured: binding

B1: TLR8 (endogenous in THP-1 cells) (receptor, UniProt Q9NR97 27-1041)
chain: EENFSRSYPCDEKKQNDSVIAECSNRRLQEVPQTVGKYVTELDLSDNFITHITNESFQGLQNLTKINLNHNPNVQHQNGNPGIQSNGLNITDGAFLNLKNLRELLLEDNQLPQIPSGLPESLTELSLIQNNIYNITKEGISRLINLKNLYLAWNCYFNKVCEKTNIEDGVFETLTNLELLSLSFNSLSHVPPKLPSSLRKLFLSNTQIKYISEEDFKGLINLTLLDLSGNCPRCFNAPFPCVPCDGGASINIDRFAFQNLTQLRYLNLSSTSLRKINAAWFKNMPHLKVLDLEFNYLVGEIASGAFLTMLPRLEILDLSFNYIKGSYPQHINISRNFSKLLSLRALHLRGYVFQELREDDFQPLMQLPNLSTINLGINFIKQIDFKLFQNFSNLEIIYLSENRISPLVKDTRQSYANSSSFQRHIRKRRSTDFEFDPHSNFYHFTRPLIKPQCAAYGKALDLSLNSIFFIGPNQFENLPDIACLNLSANSNAQVLSGTEFSAIPHVKYLDLTNNRLDFDNASALTELSDLEVLDLSYNSHYFRIAGVTHHLEFIQNFTNLKVLNLSHNNIYTLTDKYNLESKSLVELVFSGNRLDILWNDDDNRYISIFKGLKNLTRLDLSLNRLKHIPNEAFLNLPASLTELHINDNMLKFFNWTLLQQFPRLELLDLRGNKLLFLTDSLSDFTSSLRTLLLSHNRISHLPSGFLSEVSSLKHLDLSSNLLKTINKSALETKTTTKLSMLELHGNPFECTCDIGDFRRWMDEHLNVKIPRLVDVICASPGDQRGKSIVSLELTTCVSDVTAVILFFFTFFITTMVMLAALAHHLFYWDVWFIYNVCLAKVKGYRSLSTSQTFYDAYISYDTKDASVTDWVINELRYHLEESRDKNVLLCLEERDWDPGLAIIDNLMQSINQSKKTVFVLTKKYAKSWNFKTAFYLALQRLMDENMDVIIFILLEPVLQHSQYLRLRQRICKSSILQWPDNPKAEGLFWQTLRNVVLTENDSRYNNMYVDSIKQY
binds: [1] | [2] | [3] | [4] | [5]
